Some entries share one result that the patent states for a list of compounds. Some compounds share one range, which may span the group rather than tell each member.
Columns and labels:
[1] = test system: harmful plants ALOMY, ECHCG, SETVI, AMARE, POLCO, STEME and VIOTR; assay: Herbicidal pre-emergence action (greenhouse pot test); format: in vivo; details: pre-emergence method, 320 g of active substance per hectare; against several, in particular three or more, of the mentioned harmful plants
[2] = test system: harmful plants ECHCG, SETVI, ABUTH, AMARE, PHBPU, POLCO, STEME, and VIOTR; assay: Herbicidal post-emergence action (greenhouse pot test); format: in vivo; details: post-emergence method, 320 g of active substance per hectare; against several, in particular three or more, of the mentioned harmful plants

In the case of O=C(Nc1nsc2c(=O)n(CC3CCCCC3)ccc12)C(F)(Cl)C(F)(F)F (centres unmarked) [II-315], the excellent activity [1] is reported as 90-100% and the excellent activity [2] is reported as 90-100%.

COC(=O)CCCC(=O)N(C(=O)CCCC(=O)OC)c1nsc2c(=O)n(CC3CCCCC3)ccc12 [II-386] was tested, and the excellent activity [1] was 90-100% and the excellent activity [2] was 90-100%.

With O=C(Nc1nsc2c(=O)n(CC3CCCCCC3)ccc12)C(F)(F)C(F)(F)F [II-163] the excellent activity [1] was 90-100% and the excellent activity [2] was 90-100%.

For CCC(=O)N(C(=O)CC)c1nsc2c(=O)n(CC3CCCCC3)ccc12 [II-332], the excellent activity [1] was 90-100% and the excellent activity [2] was 90-100%.

With O=C(Nc1nsc2c(=O)n(CC3(F)CCCCC3)ccc12)C(F)(F)C(F)(F)F [II-177] the excellent activity [1] was 90-100% and the excellent activity [2] was 90-100%.

For O=C(Nc1nsc2c(=O)n(Cc3cc(F)c(F)cc3F)ccc12)C(F)(F)C(F)(F)F [II-168], the excellent activity [1] was 90-100% and the excellent activity [2] was 90-100%.

In the case of O=C(Nc1nsc2c(=O)n(CC3CCCCC3)ccc12)C(F)F [II-128], the excellent activity [1] is reported as 90-100% and the excellent activity [2] is reported as 90-100%.

For CCOC(=O)CCC(=O)Nc1nsc2c(=O)n(CC3CCCCC3)ccc12 [II-367], the excellent activity [1] was 90-100% and the excellent activity [2] was 90-100%.

For O=C(CC(F)(F)F)Nc1nsc2c(=O)n(CC3CCCCC3)ccc12 [II-111], the excellent activity [1] was 90-100% and the excellent activity [2] was 90-100%.

With Nc1nsc2c(=O)n(CC3(F)CCCCC3)ccc12 [I-56] the excellent activity [1] was 90-100% and the excellent activity [2] was 90-100%.

With CCOC(=O)CCCC(=O)N(C(=O)CCCC(=O)OCC)c1nsc2c(=O)n(CC3CCCCC3)ccc12 [II-385] the excellent activity [1] was 90-100% and the excellent activity [2] was 90-100%.

In the case of CCC(=O)Nc1nsc2c(=O)n(CC3CCCCCC3)ccc12 [II-27], the excellent activity [1] is reported as 90-100% and the excellent activity [2] is reported as 90-100%.

With COCC(=O)Nc1nsc2c(=O)n(Cc3cc(F)c(F)cc3F)ccc12 [II-202] the excellent activity [1] was 90-100% and the excellent activity [2] was 90-100%.

CSCC(=O)Nc1nsc2c(=O)n(CC3CCCCC3)ccc12 [II-213] was tested, and the excellent activity [1] was 90-100% and the excellent activity [2] was 90-100%.

With CC1CCCCC1Cn1ccc2c(N)nsc2c1=O (centres unmarked) [I-49] the excellent activity [1] was 90-100% and the excellent activity [2] was 90-100%.

With O=C(Nc1nsc2c(=O)n(CC3CCCCC3)ccc12)C(F)(F)C(F)(F)Cl [II-298] the excellent activity [1] was 90-100% and the excellent activity [2] was 90-100%.

For CC(=O)Nc1nsc2c(=O)n(CC3CCCCCC3)ccc12 [II-3], the excellent activity [1] was 90-100% and the excellent activity [2] was 90-100%.

With CCOC(=O)CC(=O)Nc1nsc2c(=O)n(CC3CCCCC3)ccc12 [II-366] the excellent activity [1] was 90-100% and the excellent activity [2] was 90-100%.

CCCC(=O)Nc1nsc2c(=O)n(CC3CCCCC3)ccc12 [II-43] was tested, and the excellent activity [1] was 90-100% and the excellent activity [2] was 90-100%.

With COC(=O)CCC(=O)Nc1nsc2c(=O)n(CC3CCCCC3Cl)ccc12 (centres unmarked) [II-274] the excellent activity [1] was 90-100% and the excellent activity [2] was 90-100%.

With COC(=O)CCCC(=O)Nc1nsc2c(=O)n(CC3CCCCC3)ccc12 [II-281] the excellent activity [1] was 90-100% and the excellent activity [2] was 90-100%.

For COCC(=O)Nc1nsc2c(=O)n(CC3CCCCC3)ccc12 [II-196], the excellent activity [1] was 90-100% and the excellent activity [2] was 90-100%.

CCOCC(=O)Nc1nsc2c(=O)n(CC3CCCCC3)ccc12 [II-389] was tested, and the excellent activity [1] was 90-100% and the excellent activity [2] was 90-100%.

For O=C(CCl)Nc1nsc2c(=O)n(CC3CCCCC3)ccc12 [II-60], the excellent activity [1] was 90-100% and the excellent activity [2] was 90-100%.

For CCC(=O)Nc1nsc2c(=O)n(CC3CCCCC3)ccc12 [II-26], the excellent activity [1] was 90-100% and the excellent activity [2] was 90-100%.

In the case of COCC(=O)Nc1nsc2c(=O)n(CC3CCCCC3Cl)ccc12 (centres unmarked) [II-206], the excellent activity [1] is reported as 90-100% and the excellent activity [2] is reported as 90-100%.

In the case of COCC(=O)Nc1nsc2c(=O)n(CC3CCCC3)ccc12 [II-195], the excellent activity [1] is reported as 90-100% and the excellent activity [2] is reported as 90-100%.

CCOC(=O)CCC(=O)Nc1nsc2c(=O)n(CC3CCCCCC3)ccc12 [II-388] was tested, and the excellent activity [1] was 90-100% and the excellent activity [2] was 90-100%.

Source: patent publication US20200317690A1, “NOVEL ISOTHIAZOLOPYRIDONES, PROCESSES FOR THEIR PREPARATION AND THEIR USE AS HERBICIDES AND/OR PLANT GROWTH REGULATORS” (Bayer CropScience Aktiengesellschaft, priority 2016, published 2020)
